Assay results from article PMC7145593.

Protein sequences, listed by entry. Tags and fused reporters are not part of them.
UniProt Q8I581: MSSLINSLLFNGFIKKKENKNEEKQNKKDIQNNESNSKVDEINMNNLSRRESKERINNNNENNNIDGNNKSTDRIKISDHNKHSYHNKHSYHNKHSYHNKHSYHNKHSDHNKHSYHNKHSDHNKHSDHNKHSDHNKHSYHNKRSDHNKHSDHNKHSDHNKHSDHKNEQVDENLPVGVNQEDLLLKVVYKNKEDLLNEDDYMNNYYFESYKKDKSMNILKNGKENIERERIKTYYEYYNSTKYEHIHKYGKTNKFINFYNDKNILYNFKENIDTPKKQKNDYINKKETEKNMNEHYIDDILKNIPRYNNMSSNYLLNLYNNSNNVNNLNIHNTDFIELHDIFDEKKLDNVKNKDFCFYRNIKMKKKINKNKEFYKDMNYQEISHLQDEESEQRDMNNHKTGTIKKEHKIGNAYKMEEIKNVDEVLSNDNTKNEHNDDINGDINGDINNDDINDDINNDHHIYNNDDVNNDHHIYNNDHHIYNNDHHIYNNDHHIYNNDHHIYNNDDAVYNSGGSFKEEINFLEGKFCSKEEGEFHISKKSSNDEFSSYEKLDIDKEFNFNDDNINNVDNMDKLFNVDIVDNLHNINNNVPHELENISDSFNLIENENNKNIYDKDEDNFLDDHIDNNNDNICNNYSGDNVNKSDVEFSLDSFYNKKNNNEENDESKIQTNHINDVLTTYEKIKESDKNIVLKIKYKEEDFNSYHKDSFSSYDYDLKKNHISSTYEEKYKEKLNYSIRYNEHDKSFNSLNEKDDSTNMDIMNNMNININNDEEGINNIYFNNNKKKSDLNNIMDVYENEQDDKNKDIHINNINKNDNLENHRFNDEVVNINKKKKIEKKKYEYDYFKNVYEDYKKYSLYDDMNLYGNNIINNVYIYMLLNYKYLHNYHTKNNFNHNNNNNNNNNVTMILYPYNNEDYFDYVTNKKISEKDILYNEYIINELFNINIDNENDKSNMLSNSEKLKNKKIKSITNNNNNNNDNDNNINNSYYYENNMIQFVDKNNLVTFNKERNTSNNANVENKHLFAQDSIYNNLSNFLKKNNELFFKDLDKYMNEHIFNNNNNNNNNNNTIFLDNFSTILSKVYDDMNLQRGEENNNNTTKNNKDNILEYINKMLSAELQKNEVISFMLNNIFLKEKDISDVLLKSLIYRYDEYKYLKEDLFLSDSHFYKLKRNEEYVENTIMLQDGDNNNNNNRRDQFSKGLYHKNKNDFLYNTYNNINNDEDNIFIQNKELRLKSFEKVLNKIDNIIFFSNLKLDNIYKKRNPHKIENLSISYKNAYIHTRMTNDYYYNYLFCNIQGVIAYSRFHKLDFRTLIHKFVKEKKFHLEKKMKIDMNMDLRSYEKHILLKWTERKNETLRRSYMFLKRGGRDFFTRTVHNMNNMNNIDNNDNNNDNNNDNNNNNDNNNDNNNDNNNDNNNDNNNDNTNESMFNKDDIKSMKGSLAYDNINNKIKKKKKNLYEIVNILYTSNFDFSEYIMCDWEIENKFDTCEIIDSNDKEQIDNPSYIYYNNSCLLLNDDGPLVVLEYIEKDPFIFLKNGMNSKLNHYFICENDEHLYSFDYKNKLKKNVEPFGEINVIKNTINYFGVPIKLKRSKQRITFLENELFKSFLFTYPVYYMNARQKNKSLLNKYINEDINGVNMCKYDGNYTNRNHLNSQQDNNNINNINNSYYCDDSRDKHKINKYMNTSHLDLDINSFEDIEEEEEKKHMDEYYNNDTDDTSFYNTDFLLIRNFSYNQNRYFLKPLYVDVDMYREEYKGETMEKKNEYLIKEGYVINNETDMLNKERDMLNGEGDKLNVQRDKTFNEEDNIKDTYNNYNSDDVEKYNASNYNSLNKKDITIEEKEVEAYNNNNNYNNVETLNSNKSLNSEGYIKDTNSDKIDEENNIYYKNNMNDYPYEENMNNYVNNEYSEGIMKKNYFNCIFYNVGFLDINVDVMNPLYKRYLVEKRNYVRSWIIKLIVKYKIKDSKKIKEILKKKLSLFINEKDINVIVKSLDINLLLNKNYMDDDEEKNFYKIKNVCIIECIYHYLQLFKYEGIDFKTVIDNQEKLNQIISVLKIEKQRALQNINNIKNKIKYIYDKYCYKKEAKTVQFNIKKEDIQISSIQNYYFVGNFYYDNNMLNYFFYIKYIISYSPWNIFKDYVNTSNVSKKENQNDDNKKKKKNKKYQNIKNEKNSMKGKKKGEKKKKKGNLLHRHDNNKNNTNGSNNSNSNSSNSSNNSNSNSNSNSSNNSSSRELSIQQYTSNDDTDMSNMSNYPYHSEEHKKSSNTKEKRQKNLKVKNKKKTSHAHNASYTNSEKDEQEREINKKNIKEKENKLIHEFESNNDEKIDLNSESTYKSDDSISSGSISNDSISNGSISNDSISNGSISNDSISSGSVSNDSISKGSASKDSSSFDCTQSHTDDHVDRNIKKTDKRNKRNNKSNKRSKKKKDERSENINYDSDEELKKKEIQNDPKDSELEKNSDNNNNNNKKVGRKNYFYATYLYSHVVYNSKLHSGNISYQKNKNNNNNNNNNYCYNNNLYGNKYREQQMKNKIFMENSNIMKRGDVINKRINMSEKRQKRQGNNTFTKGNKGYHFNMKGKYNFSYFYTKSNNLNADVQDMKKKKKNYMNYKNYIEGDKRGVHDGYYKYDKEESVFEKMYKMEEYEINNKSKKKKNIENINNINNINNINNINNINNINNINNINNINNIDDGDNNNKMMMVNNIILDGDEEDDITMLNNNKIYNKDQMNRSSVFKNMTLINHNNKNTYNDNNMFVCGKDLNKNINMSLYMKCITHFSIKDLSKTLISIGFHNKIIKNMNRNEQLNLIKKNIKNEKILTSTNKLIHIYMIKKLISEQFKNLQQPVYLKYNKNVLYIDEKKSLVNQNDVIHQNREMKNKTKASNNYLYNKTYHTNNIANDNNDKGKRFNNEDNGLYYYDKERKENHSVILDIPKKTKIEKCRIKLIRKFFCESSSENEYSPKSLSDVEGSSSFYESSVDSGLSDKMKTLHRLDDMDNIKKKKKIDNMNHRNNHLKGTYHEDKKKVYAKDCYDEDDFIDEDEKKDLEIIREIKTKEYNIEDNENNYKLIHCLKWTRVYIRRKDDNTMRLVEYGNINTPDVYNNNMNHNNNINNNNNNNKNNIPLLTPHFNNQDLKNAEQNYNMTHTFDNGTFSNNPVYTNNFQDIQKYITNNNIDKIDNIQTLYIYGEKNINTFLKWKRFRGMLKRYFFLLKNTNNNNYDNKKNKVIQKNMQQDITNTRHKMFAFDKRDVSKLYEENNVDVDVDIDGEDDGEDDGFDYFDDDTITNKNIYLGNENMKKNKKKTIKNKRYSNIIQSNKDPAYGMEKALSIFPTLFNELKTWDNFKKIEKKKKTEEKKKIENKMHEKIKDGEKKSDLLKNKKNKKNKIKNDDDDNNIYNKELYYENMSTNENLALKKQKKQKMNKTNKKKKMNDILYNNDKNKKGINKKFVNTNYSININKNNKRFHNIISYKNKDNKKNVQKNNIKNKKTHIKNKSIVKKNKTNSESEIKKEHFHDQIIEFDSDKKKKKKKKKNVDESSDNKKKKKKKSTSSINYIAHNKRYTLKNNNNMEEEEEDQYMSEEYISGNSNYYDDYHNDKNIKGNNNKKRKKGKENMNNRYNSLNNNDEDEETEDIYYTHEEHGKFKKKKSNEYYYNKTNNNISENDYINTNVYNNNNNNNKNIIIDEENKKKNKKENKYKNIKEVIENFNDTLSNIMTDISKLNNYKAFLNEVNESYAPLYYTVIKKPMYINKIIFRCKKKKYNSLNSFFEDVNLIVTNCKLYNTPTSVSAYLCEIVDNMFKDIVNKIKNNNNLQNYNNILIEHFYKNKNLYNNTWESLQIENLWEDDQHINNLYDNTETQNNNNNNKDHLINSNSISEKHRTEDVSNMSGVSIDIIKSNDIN

Legend:
Assay in all cases: affinity purification with mass spectrometry; GFP-Trap or HA-antibody bead pulldown against control beads from nuclear extract of parasite lines with the bait endogenously tagged; dimethyl labelling, label swap; FDR < 10% in at least two reactions
[1] = target: TAF1/BDP5-AID-GFP (P. falciparum (endogenous in 3D7 parasites)) (UniProt Q8I581)
[2] = target: T1, endogenously GFP-tagged BDP4 (P. falciparum (endogenous in 3D7 parasites)) (UniProt Q8IK82)
T1 sequence: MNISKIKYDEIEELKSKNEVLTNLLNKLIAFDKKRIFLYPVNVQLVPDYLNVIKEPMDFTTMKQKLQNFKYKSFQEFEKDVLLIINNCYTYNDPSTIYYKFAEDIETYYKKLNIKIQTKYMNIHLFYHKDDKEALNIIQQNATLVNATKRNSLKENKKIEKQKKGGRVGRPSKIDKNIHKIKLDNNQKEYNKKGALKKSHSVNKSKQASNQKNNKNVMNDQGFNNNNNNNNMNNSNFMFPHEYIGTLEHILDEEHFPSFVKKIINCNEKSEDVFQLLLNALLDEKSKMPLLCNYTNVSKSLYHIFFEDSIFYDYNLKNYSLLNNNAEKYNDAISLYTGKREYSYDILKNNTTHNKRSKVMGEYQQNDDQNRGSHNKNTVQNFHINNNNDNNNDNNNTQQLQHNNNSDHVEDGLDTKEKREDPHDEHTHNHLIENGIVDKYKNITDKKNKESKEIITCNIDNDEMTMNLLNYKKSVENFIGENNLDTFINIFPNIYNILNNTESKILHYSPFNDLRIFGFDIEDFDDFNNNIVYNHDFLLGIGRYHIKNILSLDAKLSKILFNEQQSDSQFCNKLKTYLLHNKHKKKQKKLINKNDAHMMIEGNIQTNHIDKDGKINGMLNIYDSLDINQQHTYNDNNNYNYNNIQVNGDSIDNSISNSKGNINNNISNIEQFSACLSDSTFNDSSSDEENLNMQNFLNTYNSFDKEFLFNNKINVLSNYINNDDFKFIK

[3] = target: T2, endogenously GFP-tagged BDP1 (P. falciparum (endogenous in 3D7 parasites)) (UniProt Q8IJ72)
T2 sequence: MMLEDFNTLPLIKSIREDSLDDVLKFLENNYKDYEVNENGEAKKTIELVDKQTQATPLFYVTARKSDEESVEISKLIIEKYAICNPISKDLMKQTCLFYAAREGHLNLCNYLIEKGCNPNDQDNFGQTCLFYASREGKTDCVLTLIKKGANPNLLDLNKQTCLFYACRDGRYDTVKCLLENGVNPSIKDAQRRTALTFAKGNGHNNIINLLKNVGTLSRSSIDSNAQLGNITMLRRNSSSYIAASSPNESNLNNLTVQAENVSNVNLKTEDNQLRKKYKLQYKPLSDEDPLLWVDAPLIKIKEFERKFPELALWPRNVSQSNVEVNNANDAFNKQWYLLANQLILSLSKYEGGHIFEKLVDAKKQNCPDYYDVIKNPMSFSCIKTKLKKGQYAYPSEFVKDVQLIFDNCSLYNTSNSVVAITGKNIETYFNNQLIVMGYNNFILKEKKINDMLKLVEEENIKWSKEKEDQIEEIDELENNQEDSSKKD

[4] = target: T3, endogenously 3xHA-tagged BDP2 (P. falciparum (endogenous in 3D7 parasites)) (UniProt Q8I5S4)
T3 sequence: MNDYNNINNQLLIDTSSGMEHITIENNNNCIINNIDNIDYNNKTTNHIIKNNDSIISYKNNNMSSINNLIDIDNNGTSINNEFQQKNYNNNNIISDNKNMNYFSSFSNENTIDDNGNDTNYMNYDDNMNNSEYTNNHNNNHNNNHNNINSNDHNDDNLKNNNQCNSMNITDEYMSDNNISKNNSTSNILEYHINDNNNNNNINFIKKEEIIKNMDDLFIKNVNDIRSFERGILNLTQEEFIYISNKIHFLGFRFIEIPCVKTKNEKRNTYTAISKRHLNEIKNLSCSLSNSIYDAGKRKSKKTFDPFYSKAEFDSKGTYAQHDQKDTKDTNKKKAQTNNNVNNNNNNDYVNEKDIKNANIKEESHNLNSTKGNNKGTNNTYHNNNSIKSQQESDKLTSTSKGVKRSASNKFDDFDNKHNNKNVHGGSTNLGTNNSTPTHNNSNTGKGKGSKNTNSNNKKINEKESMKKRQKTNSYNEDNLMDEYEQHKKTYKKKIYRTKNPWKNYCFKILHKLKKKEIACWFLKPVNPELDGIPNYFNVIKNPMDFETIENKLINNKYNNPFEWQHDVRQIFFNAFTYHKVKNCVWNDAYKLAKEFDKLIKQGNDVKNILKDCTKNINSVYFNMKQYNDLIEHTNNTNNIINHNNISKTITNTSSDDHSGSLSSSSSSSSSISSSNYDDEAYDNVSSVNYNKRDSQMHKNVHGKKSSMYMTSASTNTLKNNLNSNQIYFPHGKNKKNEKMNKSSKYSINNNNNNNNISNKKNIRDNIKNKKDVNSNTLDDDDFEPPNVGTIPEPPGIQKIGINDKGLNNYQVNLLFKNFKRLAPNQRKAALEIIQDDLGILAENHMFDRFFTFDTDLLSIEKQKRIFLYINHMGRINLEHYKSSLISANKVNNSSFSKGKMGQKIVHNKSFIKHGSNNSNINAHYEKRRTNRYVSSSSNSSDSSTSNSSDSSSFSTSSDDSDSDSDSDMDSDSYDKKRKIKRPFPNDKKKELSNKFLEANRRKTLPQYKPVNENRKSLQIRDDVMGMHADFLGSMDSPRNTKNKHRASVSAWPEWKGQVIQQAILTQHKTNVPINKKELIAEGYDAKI

Measured: binding

B1: protein with unknown function PF3D7_1124300 (protein, UniProt Q8IIC0 1-525)
chain: MADNNLDKNESDSSCINASDEQKSSEEKDNLGEASVVSNVNENNSSFFTKCFSKIVNFGNNTQENNIPVAHEENNNEDREYNTNESNCNRYDDEEDKKVENFDNNNINNNYLKGDGEKNIHEGGDVHTDFNNEEMINAISNYNKNELNLNRGEIYLNDNEYSFISYIILSSEFRFYPIEETKKKKRRDTLKIDDTITITDTKRIKFDNNNNNNNKIEIRKKENVTDIDADKGSNNHMNEKQVVNNSEDILKKEDEEEENLKKEGGDLLIKGNNVDKVLLDDIDIEKVRSYDKIMDAEERDKLELFDEILIHIKRNFYEKILNIETNFKNLENQIEDNHSFHFRCIIEKLKNRKYDNILYIYNDIYLYHNNLLFLSKPSSYTWMKLHELSTQITNTISDIHHKKYMQKPNRKLYHIDKEEKEKKEKKKEVLKDHEKMEYCINEEEKLAFQLLLSKLNQDTHFELFRKFKNKAVWKTLEGGEIELDDKLTRADVFREMYNWCKFQLEMKNKQSELSDSESDSSKDSY
binds: all assays above

Results are given in words; binding and its absence hold for the method and conditions named. Binding seen in cells or lysates may run through a third protein. A yes stands for co-enrichment or nearness to the bait. Other partners may have been found. For some of these results: Where a sequence is shown, tags or fusion partners need not be part of it.
